Our source for the binding values is paper PMC10009644.

By UniProt entry, the sequences of proteins in these tests, tags left out.
UniProt P40763: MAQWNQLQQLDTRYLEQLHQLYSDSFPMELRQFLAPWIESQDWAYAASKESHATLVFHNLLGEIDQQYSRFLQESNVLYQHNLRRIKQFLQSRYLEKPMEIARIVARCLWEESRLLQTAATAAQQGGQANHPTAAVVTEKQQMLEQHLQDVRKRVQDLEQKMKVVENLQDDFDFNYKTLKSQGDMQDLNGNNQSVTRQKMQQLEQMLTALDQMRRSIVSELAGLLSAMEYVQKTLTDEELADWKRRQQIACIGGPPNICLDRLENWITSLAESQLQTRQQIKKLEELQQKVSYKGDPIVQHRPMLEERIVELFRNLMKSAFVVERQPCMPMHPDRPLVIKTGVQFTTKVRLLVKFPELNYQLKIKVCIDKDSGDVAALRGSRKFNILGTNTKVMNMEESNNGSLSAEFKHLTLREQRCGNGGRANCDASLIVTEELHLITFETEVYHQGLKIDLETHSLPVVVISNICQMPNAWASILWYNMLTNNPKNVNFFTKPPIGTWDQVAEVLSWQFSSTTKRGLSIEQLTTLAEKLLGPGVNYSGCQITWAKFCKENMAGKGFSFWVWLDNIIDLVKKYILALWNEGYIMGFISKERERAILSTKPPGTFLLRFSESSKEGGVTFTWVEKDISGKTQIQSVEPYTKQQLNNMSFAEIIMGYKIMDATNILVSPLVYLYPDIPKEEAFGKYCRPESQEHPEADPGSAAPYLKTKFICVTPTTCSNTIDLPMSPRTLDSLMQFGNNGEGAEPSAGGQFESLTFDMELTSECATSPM
UniProt O75530: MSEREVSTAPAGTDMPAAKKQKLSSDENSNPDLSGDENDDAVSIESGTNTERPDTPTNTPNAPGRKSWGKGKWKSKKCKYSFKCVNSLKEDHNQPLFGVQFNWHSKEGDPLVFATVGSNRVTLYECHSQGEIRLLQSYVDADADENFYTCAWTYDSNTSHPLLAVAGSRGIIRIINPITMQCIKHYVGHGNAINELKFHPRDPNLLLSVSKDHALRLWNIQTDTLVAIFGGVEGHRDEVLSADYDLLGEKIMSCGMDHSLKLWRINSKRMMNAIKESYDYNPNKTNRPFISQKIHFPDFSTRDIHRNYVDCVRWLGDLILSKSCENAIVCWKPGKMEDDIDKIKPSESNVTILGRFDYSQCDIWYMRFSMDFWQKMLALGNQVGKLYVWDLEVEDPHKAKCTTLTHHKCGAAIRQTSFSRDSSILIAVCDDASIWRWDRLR

The experiment concerns the target HA-tagged STAT3 (signal transducer and activator of transcription 3) (UniProt P40763). Put plainly: co-IP; HEK293 cells transfected with HA- and FLAG-tagged constructs; lysed in Pierce IP Lysis Buffer; IP with anti-FLAG (anti-DYKDDDDK magnetic agarose, 4°C overnight) or anti-HA antibody, washed 3x with cold PBS, immunoblot for the other tag. For orientation: In western blotting, separated proteins are transferred to a membrane and probed.

Results are given in words; binding and its absence hold for the method and conditions named. Binding seen in cells or lysates may run through a third protein. Some binding calls cover weakened binding; strength is not graded here.

As for “FLAG-tagged full-length EED (from UniProt O75530 1-441)”, the binding entry is reported as “binds”.
